The text below walks through data of publication PMC10040131.

Protein sequences, listed by entry. Tags and fused reporters are not part of them.
UniProt Q16665: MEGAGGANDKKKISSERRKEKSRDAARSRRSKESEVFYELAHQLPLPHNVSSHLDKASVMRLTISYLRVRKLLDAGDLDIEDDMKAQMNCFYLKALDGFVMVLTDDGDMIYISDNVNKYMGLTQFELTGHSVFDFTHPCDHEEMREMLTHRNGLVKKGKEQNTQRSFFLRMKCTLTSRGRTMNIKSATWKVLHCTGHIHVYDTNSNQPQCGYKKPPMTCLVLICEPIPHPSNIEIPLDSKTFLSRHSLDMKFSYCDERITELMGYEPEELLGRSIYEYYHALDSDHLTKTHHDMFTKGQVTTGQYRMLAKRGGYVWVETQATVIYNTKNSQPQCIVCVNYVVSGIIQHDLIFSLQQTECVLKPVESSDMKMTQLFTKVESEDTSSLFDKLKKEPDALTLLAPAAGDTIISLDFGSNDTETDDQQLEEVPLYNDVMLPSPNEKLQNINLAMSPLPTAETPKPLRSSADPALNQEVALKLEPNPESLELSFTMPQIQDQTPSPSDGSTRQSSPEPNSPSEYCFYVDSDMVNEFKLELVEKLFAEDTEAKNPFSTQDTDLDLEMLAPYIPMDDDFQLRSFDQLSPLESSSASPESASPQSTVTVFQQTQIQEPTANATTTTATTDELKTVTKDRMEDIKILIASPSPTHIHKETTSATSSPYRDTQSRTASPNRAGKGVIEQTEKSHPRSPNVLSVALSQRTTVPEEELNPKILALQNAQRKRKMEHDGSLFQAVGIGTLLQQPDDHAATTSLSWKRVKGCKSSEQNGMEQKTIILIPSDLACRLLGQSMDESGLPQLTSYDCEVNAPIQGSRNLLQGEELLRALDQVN
UniProt Q99814: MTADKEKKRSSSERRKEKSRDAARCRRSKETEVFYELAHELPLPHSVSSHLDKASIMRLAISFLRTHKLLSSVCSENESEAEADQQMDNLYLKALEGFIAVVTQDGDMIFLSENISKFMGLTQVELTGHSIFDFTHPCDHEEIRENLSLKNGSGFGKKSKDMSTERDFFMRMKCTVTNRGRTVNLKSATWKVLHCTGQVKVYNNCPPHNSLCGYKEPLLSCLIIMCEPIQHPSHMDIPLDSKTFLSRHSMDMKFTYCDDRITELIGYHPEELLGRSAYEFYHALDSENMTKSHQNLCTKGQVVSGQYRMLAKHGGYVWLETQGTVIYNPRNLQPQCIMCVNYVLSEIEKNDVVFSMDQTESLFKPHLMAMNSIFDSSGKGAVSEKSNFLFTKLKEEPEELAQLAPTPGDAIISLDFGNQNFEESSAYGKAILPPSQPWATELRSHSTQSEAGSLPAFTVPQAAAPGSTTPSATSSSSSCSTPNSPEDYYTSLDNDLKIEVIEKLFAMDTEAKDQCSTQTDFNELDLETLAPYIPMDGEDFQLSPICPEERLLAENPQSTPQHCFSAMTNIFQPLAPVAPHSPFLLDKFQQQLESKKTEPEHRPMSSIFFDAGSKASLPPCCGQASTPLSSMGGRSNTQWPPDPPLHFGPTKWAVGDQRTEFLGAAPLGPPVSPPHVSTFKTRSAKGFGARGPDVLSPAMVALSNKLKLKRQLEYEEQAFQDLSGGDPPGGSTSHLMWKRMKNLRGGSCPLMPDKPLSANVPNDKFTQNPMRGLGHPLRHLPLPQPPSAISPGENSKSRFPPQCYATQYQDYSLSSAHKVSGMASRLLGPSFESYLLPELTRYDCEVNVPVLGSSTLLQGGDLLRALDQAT
UniProt Q09028: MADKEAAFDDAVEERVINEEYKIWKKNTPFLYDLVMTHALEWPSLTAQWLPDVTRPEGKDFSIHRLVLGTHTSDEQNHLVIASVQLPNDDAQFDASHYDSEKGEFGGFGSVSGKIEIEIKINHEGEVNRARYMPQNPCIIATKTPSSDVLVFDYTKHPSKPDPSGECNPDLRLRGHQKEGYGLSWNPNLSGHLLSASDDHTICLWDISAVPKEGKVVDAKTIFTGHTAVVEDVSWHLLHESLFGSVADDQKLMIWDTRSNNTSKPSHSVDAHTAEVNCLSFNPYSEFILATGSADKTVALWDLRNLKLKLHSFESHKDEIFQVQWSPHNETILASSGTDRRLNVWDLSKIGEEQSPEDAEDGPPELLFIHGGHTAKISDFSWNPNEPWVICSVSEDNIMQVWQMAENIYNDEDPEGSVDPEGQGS
UniProt P28370: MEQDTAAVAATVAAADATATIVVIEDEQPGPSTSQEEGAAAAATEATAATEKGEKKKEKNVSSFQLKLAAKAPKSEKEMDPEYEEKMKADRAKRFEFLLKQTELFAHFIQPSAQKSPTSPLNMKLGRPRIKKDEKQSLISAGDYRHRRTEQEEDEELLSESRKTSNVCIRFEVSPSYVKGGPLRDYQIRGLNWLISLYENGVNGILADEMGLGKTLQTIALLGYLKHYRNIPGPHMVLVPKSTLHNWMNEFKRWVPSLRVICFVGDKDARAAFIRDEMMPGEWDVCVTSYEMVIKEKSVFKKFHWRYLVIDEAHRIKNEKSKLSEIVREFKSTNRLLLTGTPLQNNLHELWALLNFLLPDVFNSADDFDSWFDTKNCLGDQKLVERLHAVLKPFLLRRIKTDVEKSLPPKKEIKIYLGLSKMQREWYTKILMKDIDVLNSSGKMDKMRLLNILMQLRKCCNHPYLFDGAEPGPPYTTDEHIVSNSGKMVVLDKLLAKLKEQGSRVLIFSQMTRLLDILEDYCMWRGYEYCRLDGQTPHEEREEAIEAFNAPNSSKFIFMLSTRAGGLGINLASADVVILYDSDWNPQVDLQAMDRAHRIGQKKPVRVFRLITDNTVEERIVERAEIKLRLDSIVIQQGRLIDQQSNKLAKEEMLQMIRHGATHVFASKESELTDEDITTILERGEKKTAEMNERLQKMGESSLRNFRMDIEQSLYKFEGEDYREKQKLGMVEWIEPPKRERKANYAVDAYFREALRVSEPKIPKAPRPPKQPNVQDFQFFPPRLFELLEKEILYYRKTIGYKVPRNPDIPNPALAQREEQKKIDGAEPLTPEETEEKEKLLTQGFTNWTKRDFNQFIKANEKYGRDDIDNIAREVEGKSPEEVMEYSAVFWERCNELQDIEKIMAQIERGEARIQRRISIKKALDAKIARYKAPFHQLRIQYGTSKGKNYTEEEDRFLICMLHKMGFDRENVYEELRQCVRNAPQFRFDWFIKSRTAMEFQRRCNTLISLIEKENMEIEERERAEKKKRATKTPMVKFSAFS

Experiment [1] concerns the target T1, PHF6 (human (endogenous in MCF-7)) (UniProt Q8IWS0).
T1 sequence: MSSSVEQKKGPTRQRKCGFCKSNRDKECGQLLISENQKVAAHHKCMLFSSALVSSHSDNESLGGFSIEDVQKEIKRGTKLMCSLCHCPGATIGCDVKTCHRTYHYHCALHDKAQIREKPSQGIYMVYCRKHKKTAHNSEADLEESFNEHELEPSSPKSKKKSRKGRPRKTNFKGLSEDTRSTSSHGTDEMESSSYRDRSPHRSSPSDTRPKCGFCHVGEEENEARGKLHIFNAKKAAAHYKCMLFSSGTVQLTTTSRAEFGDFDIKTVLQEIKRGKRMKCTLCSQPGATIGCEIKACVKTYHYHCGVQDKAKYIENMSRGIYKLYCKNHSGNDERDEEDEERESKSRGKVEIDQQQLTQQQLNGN
Briefly: co-IP; MCF-7 cells exposed to 1% O2 for 12 h; whole cell lysates precipitated with anti-PHF6 antibody or control IgG; endogenous proteins; western blot. (In general: In western blotting, separated proteins are transferred to a membrane and probed.)

The target of experiment [2] is T1, PHF6 (human (endogenous in MCF-7)). The experiment is described as follows: co-IP; endogenous PHF6 and NURF subunits; HEPES lysis buffer (20 mM HEPES, 150 mM NaCl, 1 mM EDTA, 0.5% NP-40, 0.25% deoxycholate), protein A/G agarose beads and antibody at 4 °C overnight; western blot; cell line and precipitating antibody not stated.

These are yes or no findings as the source states them, for the method shown. In cells and extracts the contact can be indirect. Some results given as binding are weak or reduced against the parent protein; the word gives no strength.

As for HIF-1α (from UniProt Q16665 1-826), the binding result in experiment [1] was “binds”.

With HIF-2α (from UniProt Q99814 1-870), the binding entry in experiment [1] is listed as “binds”. In the case of RBBP4 (from UniProt Q09028 1-425), the binding result in experiment [2] is listed as “binds”. With SNF2L (from UniProt P28370 1-1042), the binding result in experiment [2] is “binds”.
